# In the supplement of paper PMC12819154, “High-throughput peptide-centric local stability assay extends protein–ligand identification to membrane proteins, tissues and bacteria” (Nature Structural & Molecular Biology, 2025):
# Sequences of proteins named here, by UniProt entry; tags and fusion partners are left off. A change or cut given only in a name is not applied to a line headed by its entry.
# UniProt Q8N9L1: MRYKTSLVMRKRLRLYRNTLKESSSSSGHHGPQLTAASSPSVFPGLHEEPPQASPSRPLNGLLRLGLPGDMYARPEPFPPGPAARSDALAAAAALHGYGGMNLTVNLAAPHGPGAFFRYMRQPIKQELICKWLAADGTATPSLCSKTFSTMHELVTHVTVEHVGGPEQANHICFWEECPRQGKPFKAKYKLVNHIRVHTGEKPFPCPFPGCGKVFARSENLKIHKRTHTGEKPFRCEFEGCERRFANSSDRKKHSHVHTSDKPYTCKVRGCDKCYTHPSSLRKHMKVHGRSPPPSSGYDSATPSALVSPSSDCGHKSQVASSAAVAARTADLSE
# UniProt Q8N3J3: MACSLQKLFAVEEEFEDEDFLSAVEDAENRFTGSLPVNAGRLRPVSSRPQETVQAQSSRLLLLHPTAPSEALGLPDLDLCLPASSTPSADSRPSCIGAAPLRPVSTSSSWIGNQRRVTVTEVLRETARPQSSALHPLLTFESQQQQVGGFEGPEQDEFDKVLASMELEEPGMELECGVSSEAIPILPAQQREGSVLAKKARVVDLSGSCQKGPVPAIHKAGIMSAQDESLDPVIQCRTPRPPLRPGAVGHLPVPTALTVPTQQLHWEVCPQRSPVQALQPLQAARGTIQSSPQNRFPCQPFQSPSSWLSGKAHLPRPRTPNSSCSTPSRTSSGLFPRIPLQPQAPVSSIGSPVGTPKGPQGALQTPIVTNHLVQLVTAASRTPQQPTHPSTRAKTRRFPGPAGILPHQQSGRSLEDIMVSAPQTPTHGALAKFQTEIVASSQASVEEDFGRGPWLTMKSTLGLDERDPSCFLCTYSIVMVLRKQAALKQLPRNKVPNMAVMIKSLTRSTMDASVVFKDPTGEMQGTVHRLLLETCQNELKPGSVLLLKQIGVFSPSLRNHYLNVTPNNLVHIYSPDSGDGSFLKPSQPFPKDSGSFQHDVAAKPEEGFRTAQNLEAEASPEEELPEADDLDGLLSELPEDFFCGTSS
# UniProt Q8N196: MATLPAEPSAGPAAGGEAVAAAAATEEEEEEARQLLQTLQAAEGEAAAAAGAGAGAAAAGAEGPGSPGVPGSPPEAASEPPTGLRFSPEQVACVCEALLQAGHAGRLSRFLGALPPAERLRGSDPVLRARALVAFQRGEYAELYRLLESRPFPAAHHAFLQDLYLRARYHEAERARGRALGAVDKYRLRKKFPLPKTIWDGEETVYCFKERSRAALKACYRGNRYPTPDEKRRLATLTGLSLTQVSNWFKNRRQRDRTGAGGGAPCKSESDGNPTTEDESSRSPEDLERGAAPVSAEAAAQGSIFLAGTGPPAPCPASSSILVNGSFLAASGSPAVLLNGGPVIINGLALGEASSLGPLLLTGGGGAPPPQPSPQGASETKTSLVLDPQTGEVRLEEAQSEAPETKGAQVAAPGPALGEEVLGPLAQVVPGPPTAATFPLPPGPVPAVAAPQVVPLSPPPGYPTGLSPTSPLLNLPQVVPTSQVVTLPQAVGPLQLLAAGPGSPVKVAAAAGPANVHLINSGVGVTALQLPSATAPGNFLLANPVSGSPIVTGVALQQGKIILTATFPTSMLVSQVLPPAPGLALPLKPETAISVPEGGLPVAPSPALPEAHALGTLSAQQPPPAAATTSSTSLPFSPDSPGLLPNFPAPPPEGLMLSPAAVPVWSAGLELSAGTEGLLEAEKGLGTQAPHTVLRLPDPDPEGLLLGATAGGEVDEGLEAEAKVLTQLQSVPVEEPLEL
# UniProt Q8NC51: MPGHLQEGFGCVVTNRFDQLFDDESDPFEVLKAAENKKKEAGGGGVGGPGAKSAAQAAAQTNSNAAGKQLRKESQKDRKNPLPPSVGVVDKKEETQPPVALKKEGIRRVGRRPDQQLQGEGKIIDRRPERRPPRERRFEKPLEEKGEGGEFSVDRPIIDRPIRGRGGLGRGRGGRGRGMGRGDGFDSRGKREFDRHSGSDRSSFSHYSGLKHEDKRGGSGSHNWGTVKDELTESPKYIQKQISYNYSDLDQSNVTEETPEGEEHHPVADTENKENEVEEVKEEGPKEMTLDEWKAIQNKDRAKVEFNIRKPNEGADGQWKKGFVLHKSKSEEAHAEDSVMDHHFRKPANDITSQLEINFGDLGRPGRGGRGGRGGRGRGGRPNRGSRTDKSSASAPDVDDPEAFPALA
# UniProt Q8NBP7, whole entry: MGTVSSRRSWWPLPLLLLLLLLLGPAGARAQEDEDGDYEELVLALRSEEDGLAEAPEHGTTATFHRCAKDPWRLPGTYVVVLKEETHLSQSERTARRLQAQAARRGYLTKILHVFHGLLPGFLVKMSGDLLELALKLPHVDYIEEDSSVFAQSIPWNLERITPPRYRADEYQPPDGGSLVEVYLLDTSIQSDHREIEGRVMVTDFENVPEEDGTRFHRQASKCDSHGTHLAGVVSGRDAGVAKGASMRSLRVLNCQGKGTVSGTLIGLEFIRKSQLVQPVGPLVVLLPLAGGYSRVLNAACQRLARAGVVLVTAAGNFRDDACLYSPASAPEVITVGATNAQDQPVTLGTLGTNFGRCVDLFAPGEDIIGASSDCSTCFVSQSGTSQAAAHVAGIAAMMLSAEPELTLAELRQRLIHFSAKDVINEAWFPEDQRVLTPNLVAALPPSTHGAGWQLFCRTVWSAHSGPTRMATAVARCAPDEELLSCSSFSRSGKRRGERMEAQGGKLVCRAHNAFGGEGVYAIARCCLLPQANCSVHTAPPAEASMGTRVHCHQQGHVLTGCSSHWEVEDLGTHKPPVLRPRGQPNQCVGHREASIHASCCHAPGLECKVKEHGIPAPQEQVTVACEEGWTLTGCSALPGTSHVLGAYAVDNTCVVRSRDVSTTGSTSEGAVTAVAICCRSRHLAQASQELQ
# UniProt Q8N3E9: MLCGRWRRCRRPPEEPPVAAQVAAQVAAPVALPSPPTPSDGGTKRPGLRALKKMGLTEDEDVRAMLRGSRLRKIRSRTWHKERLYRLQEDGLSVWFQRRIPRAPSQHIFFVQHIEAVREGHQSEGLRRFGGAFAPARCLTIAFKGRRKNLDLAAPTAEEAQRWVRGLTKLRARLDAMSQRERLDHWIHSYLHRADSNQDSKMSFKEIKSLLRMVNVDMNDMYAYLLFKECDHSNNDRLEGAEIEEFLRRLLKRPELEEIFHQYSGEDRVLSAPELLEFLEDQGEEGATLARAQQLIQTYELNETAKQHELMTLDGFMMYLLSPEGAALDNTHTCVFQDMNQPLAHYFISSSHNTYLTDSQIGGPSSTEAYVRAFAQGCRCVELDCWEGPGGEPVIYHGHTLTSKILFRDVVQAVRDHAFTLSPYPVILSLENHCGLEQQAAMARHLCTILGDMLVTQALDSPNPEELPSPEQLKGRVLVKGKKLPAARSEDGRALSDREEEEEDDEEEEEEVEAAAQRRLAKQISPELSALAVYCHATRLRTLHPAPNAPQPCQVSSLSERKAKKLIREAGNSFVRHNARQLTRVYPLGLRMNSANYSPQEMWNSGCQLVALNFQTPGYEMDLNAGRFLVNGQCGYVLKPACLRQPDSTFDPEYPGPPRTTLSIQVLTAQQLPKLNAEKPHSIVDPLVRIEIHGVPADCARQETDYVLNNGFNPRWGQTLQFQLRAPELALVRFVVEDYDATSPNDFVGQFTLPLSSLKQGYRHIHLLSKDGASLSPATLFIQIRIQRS
# UniProt Q8ND30: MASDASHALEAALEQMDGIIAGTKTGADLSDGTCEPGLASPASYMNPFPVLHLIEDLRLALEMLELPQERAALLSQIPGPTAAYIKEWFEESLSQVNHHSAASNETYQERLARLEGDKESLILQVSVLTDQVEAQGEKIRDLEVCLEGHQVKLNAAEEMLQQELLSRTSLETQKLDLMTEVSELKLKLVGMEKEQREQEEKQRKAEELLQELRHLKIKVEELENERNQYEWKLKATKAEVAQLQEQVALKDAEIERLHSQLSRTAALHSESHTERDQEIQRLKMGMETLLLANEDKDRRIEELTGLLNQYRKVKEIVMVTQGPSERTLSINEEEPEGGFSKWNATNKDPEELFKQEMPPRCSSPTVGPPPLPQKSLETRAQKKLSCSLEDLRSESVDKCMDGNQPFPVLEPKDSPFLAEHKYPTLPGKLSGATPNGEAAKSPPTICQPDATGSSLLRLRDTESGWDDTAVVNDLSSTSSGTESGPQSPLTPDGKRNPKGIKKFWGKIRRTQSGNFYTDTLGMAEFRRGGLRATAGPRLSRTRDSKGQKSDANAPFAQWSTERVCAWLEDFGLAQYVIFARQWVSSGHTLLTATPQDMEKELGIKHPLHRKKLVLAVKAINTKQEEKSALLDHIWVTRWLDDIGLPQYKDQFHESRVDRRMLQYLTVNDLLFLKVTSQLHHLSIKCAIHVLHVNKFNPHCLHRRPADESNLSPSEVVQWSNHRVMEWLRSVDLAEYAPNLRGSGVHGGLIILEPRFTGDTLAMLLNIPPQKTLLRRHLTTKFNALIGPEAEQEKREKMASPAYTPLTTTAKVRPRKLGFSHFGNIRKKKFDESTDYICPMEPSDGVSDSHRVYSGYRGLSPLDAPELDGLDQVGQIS
# UniProt Q8N6T7, whole entry: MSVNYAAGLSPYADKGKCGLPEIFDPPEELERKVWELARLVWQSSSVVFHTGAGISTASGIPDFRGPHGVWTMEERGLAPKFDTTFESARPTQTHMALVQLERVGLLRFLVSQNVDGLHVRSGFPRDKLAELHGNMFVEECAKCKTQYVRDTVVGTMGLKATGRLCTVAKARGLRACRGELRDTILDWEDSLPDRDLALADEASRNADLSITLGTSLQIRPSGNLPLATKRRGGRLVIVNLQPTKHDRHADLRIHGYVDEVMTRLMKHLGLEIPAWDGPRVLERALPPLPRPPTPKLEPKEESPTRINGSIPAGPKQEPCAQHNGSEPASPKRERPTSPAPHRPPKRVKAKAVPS
# UniProt Q8NBI5: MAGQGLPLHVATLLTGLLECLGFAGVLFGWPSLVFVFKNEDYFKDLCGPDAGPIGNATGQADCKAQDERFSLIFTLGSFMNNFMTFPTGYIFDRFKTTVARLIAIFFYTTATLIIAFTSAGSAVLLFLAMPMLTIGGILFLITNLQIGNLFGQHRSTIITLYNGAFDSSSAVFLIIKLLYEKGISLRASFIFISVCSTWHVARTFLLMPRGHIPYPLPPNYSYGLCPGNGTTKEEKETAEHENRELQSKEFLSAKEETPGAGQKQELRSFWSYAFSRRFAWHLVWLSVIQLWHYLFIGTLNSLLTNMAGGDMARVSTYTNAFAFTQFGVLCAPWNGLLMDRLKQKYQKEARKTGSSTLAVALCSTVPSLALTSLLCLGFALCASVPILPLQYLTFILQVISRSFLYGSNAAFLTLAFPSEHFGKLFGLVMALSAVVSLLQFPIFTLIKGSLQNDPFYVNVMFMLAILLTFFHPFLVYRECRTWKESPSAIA
# UniProt Q8NG06: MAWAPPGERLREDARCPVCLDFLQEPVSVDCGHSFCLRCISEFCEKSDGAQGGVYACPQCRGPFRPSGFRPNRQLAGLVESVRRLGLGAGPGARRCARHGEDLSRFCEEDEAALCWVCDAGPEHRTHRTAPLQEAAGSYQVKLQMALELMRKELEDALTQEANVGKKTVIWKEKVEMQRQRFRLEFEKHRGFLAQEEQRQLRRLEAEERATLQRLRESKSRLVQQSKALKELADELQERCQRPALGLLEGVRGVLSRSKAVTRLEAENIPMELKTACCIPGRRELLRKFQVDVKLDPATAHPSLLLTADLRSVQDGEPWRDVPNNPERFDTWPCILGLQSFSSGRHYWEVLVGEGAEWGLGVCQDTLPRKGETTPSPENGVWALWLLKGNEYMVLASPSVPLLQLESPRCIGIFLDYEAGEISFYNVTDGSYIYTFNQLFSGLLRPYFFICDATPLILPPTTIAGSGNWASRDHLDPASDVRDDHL
# UniProt Q8NFY9: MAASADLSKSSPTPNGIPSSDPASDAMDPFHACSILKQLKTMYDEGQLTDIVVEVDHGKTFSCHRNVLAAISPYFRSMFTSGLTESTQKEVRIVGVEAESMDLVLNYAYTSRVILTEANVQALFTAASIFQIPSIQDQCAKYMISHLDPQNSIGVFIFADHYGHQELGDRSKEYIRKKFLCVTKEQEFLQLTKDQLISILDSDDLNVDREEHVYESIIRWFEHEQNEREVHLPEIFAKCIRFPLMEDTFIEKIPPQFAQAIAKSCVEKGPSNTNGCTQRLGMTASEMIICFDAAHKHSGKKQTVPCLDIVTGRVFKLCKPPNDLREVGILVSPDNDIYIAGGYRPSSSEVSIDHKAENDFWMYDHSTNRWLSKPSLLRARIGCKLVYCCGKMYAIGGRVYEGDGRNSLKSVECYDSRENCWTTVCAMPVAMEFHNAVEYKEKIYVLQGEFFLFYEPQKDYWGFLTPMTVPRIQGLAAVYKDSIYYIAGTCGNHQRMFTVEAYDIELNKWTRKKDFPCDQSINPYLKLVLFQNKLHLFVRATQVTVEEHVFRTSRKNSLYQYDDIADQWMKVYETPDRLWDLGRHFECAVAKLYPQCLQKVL
# The other results are listed elsewhere or left out. Most values lie at the level of the controls, where differences are scatter.
# Compound: Cc1nc(Nc2ncc(C(=O)Nc3c(C)cccc3Cl)s2)cc(N2CCN(CCO)CC2)n1 [dasatinib]
# Assay: log2 fold change of tryptic peptide abundance, ligand vs vehicle (limited proteolysis) (log2 ratio); higher = more trypsin-susceptible (destabilized)
# Conditions: ligand concentration: 5 uM; sample: K562 cleared lysate
row,Target,log2 fold change
1,"NKAP (peptide sequence: TKAEEPSDLIGPEAPK, peptide start residue: 282) (UniProt Q8N5F7)",-0.0654
2,"UniProt Q8N9L1 (peptide sequence: THTGEKPFR, peptide start residue: 852)",0.0759
3,"C17orf53 (peptide sequence: LRPVSSRPQETVQAQSSR, peptide start residue: 42) (UniProt Q8N3J3)",-0.161
4,"SIX5 (peptide sequence: GLGTQAPHTVLR, peptide start residue: 684) (UniProt Q8N196)",-0.255
5,"SERBP1 (peptide sequence: PGHLQEGFGCVVTNR, peptide start residue: 2) (UniProt Q8NC51)",0.0823
6,"PCSK9 (peptide sequence: GQPNQCVGHR, peptide start residue: 583) (UniProt Q8NBP7)",0.187
7,"CMAS (peptide sequence: EVTEPLNLNPAK, peptide start residue: 189) (UniProt Q8NFW8)",-0.0535
8,"ZNF280C (peptide sequence: SSQSSVTVENASKPDFTK, peptide start residue: 114) (UniProt Q8ND82)",0.125
9,"PLCD3 (peptide sequence: APSQHIFFVQHIEAVR, peptide start residue: 103) (UniProt Q8N3E9)",-0.426
10,"UniProt Q8N587 (peptide sequence: AVTASSHLK, peptide start residue: 233)",-0.291
11,"UniProt Q8N7X4 (peptide sequence: SDVAANGQDEK, peptide start residue: 82)",0.038
12,"PPFIBP2 (peptide sequence: LSGATPNGEAAK, peptide start residue: 429) (UniProt Q8ND30)",0.0936
13,"SIRT6 (peptide sequence: FLVSQNVDGLHVR, peptide start residue: 109) (UniProt Q8N6T7)",0.238
14,"ZCCHC7 (peptide sequence: QCDRCHMLGHYTDACTEIWR, peptide start residue: 305) (UniProt Q8N3Z6)",-0.492
15,"CPSF7 (peptide sequence: QEPSPKPNNKTPAILYTYSGLR, peptide start residue: 57) (UniProt Q8N684)",0.153
16,"UniProt Q8NDZ2 (peptide sequence: TPQGGLYNRPCLHR, peptide start residue: 420)",-0.547
17,"UniProt Q8N7K0 (peptide sequence: DVMQETFR, peptide start residue: 40)",0.102
18,"GHDC (peptide sequence: STDISTFR, peptide start residue: 87) (UniProt Q8N2G8)",-0.218
19,"LSM14A (peptide sequence: VSRPENEQLR, peptide start residue: 244) (UniProt Q8ND56)",-0.149

# Two entries from above, with bars between the fields.
row | Target | log2 fold change
4 | SIX5 (peptide sequence: GLGTQAPHTVLR, peptide start residue: 684) (UniProt Q8N196) | -0.255
5 | SERBP1 (peptide sequence: PGHLQEGFGCVVTNR, peptide start residue: 2) (UniProt Q8NC51) | 0.0823

# Next results

row,Target,log2 fold change
1,"PIAS4 (peptide sequence: NSEPAPQPHRPLDPLTMHSTYDR, peptide start residue: 70) (UniProt Q8N2W9)",-0.294
2,"PPHLN1 (peptide sequence: YYSHVDYR, peptide start residue: 52) (UniProt Q8NEY8)",-0.388
3,"KLHL36 (peptide sequence: QVLENIHFPLIPK, peptide start residue: 230) (UniProt Q8N4N3)",0.329
4,"UniProt Q8NFC6 (peptide sequence: HAYVHKPYLYSK, peptide start residue: 468)",-0.19
5,"SLC43A3 (peptide sequence: ETAEHENR, peptide start residue: 237) (UniProt Q8NBI5)",-0.0923
6,"C12orf45 (peptide sequence: GKIEVLDSPASK, peptide start residue: 171) (UniProt Q8N5I9)",-0.141
7,"MTMR14 (peptide sequence: DGGFTLEDICMLRR, peptide start residue: 420) (UniProt Q8NCE2)",-0.176
8,"UniProt Q8N594 (peptide sequence: SPSEPAHPEATTPGKR, peptide start residue: 214)",0.968
9,"UniProt Q8ND90 (peptide sequence: LEQVIAGANHSGAIR, peptide start residue: 291)",-0.162
10,"OGFOD1 (peptide sequence: VCEALEHGHVEWSSR, peptide start residue: 307) (UniProt Q8N543)",0.526
11,"DDHD1 (peptide sequence: HYGESITNIGK, peptide start residue: 734) (UniProt Q8NEL9)",0.171
12,"TRIM58 (peptide sequence: KELEDALTQEANVGK, peptide start residue: 152) (UniProt Q8NG06)",-0.97
13,"UniProt Q8N8E2 (peptide sequence: ALSAESEVEEPARGPGEAR, peptide start residue: 94)",0.114
14,"C1orf131 (peptide sequence: EQVEVVEFHSNKK, peptide start residue: 126) (UniProt Q8NDD1)",0.616
15,"KBTBD8 (peptide sequence: SCVEKGPSNTNGCTQR, peptide start residue: 264) (UniProt Q8NFY9)",-0.66
16,"RDH13 (peptide sequence: QKAPAPEAEDEEVARR, peptide start residue: 293) (UniProt Q8NBN7)",-0.349
17,"FAM98A (peptide sequence: KPMGPAHWEK, peptide start residue: 194) (UniProt Q8NCA5)",-0.422
18,"UniProt Q8N3A8 (peptide sequence: KNYDRVMK, peptide start residue: 600)",0.398
